According to article PMC6440958:
No constants are given. Whether binding was seen depends on the method and setting. In cells and extracts the contact can be indirect. Some results given as binding are weak or reduced against the parent protein; the word gives no strength. Sequences can lack the tags named with a protein.

Amino acid sequences for entries named in this document (tags omitted). A change or cut given only in a name is not applied to a line headed by its entry. Residues count along the entry.
UniProt Q3UVX5, residues 19-1203: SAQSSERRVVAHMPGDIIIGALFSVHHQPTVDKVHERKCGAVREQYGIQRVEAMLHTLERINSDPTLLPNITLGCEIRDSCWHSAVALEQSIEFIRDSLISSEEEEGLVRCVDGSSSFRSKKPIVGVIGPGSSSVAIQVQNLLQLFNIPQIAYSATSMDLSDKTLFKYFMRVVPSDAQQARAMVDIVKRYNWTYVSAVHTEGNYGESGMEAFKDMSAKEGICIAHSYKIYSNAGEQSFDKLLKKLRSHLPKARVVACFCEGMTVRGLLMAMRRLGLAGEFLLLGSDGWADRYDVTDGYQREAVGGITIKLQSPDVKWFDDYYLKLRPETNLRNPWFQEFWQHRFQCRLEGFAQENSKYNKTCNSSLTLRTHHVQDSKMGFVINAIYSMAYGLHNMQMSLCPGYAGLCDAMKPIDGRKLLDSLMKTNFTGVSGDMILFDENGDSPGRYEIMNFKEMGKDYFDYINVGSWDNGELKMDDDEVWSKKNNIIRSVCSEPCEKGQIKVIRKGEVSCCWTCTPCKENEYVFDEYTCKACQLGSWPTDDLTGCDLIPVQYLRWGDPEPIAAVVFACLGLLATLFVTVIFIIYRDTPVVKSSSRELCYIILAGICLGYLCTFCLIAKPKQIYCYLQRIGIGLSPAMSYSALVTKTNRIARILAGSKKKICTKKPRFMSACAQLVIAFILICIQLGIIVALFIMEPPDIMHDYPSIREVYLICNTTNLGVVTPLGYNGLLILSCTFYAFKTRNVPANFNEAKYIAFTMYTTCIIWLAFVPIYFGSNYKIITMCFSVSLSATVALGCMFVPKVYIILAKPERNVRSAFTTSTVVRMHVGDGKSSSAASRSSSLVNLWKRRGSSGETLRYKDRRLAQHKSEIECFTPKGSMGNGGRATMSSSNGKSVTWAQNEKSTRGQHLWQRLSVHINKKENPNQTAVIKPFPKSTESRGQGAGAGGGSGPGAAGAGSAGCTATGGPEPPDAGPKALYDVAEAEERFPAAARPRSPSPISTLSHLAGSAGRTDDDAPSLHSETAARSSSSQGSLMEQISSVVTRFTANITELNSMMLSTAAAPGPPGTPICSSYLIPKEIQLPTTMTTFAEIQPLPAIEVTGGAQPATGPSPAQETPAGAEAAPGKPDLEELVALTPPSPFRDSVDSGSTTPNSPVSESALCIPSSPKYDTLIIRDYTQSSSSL

Target: T1, GPRASP2-GFP (mouse G-protein-coupled receptor associated sorting protein 2 fused to GFP) (mouse) (UniProt Q8BUY8)
T1 sequence: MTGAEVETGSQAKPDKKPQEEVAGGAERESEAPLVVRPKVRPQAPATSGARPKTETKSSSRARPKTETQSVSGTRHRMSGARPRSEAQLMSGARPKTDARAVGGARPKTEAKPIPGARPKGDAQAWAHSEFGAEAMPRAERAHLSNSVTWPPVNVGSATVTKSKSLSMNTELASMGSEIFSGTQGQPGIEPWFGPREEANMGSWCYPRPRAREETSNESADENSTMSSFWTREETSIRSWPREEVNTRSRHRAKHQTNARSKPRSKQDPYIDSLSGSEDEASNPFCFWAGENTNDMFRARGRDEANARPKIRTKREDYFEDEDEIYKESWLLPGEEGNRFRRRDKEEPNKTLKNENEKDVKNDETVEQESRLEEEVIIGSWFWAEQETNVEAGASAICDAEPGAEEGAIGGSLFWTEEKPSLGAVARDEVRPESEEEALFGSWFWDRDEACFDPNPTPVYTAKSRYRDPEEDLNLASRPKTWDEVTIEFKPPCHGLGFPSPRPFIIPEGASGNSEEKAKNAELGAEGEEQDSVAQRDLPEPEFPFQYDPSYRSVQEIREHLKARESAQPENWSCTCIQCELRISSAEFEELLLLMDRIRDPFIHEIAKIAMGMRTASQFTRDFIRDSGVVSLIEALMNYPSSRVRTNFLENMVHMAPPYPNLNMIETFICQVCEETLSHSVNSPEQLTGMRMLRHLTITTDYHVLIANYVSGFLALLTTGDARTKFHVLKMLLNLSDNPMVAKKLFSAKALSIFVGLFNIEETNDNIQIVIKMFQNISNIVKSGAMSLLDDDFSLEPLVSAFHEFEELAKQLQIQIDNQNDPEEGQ
Experiment: co-IP; HT-22 cells co-transfected with pmGluR5b and pGPRASP2-GFP, 48 h; control conditions or 100 µM DHPG for 5 or 30 min; lysis in TEEN buffer (25 mM Tris pH 7.4, 1 mM EGTA, 1 mM EDTA, 150 mM NaCl, 1% Triton); 800 µg extract with anti-GPRASP2 antibody or control IgG overnight at 4 °C, Sepharose A beads; western blot

mGluR5b (metabotropic glutamate receptor 5, splice variant b) (from UniProt Q3UVX5 19-1203)
binding: binds
